## Library screen at single concentrations

The chains behind the UniProt entries cited, without tags or fusion partners.
UniProt P9WPC5, whole entry: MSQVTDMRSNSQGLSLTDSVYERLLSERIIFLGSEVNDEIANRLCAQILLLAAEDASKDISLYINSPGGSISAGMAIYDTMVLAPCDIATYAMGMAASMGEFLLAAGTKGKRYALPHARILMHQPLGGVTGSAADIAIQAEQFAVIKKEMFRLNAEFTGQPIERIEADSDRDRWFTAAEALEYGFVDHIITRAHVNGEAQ
UniProt P9WPC3, whole entry partner: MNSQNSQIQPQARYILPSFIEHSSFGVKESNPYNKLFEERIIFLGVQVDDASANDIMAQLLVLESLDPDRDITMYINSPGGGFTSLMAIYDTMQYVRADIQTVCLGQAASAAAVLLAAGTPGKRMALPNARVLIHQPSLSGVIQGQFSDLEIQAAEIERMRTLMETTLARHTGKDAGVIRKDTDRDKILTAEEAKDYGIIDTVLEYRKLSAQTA
UniProt I6X8D2, whole entry: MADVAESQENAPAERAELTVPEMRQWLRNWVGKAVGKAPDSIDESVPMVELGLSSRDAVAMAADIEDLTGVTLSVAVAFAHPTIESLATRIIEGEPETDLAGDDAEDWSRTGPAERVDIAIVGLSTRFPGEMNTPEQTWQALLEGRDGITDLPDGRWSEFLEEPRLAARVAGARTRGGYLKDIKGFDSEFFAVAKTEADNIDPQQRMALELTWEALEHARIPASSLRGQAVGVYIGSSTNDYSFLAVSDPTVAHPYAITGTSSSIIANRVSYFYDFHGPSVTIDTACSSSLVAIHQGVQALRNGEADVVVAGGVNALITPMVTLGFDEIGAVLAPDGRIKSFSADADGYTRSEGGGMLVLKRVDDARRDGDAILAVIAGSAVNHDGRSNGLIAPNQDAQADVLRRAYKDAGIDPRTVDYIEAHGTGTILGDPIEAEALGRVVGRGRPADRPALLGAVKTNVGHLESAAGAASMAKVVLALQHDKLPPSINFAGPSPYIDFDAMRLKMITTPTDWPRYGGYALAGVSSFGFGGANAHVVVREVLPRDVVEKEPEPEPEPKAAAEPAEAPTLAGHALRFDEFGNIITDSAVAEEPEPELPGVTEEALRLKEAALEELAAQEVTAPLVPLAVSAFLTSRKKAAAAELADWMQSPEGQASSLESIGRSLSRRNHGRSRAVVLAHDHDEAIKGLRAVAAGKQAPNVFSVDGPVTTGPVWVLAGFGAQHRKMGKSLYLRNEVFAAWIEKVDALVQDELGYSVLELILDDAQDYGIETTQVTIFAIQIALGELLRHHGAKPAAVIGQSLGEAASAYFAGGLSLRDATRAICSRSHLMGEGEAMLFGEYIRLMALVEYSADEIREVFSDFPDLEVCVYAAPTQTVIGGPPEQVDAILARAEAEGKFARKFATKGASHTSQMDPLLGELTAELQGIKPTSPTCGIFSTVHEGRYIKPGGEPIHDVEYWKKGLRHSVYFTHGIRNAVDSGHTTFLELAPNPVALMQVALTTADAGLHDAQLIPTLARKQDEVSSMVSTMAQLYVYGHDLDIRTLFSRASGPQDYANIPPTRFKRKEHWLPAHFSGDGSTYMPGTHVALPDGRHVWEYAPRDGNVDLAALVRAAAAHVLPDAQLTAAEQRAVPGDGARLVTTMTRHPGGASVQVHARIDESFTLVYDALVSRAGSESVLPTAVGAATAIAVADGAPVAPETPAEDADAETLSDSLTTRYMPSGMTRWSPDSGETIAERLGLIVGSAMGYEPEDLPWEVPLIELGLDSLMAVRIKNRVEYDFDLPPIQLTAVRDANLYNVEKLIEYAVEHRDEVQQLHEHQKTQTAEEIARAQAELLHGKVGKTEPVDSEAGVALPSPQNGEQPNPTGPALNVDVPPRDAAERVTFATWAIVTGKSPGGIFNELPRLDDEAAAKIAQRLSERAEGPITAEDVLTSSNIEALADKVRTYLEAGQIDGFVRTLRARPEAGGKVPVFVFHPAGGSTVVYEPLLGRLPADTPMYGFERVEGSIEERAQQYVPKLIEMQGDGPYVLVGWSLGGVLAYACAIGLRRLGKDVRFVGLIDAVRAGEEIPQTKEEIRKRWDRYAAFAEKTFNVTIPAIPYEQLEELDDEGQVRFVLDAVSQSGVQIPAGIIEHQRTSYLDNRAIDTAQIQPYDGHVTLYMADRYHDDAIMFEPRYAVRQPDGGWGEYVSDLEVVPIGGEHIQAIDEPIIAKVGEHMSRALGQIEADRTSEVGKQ

Measurements from “University of Dundee, Small-Polar-MMV Screening Library” (2021), ChEMBL document CHEMBL3988442.

The filed quantity is “Percent Effect” (%).
How 0% and 100% were set is not recorded. Most values in the screen are low, and negative values occur.
Compounds were drawn at random from those tested, without regard to their results.
A dash means the value is not listed here; it may have been measured.

ClpP1P2: 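Protease assay of ClpP1P2, read by the AMC dye that it sets free. Target: ClpP1P2, Mycobacterium tuberculosis (UniProt P9WPC5 and UniProt P9WPC3). Concentration: 50 µM. Direction is inferred from only a few compounds that gave an IC50; most scored high, so higher reads as stronger inhibition. Most other retested compounds had strongly negative values. Size under these conditions: about 69,000 compounds, about 10 of them at 50% or above in at least one test.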
Pks13 thioesterase: 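Polyketide synthase Pks13, Mycobacterium tuberculosis (UniProt I6X8D2). Enzyme assay of the thioesterase domain of polyketide synthase 13; the read-out is not stated. Compounds at 30 µM. The record gives no direction; the compounds picked for IC50 retests had high values, so higher reads as stronger inhibition. About 67,000 compounds were tested under these conditions; 0.46% (about 300) showed 50% or more at least once.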

| SMILES | ClpP1P2 | Pks13 thioesterase |
|---|---|---|
| `Cc1noc([C@@H]2CCO[C@@H]3CCN(C(=O)Cc4ccsc4)C[C@@H]32)n1` | -8.481 | 15.84 |
| `Cc1nc(N)ncc1C(=O)N1CCCC(CCc2ccccc2F)C1` (stereo unspecified) | -1.947 | -26.89 |
| `O=C(CCn1c(C(F)F)cc2cccnc21)NC1CCCCC1` | -1.197 | - |
| `Cc1cccc(CN2CCCC3(CCN(CC4CCCO4)CC3)C2)n1` (stereo unspecified) | -9.824 | -11.36 |
| `Cc1nn(C)cc1-c1ccnc(N2CCN(c3cnccn3)CC2)n1` | -2.717 | 2.373 |
| `O=C(CCc1ccsc1)NC1CCN(c2cccc(F)c2)CC1` | 0.7749 | -11.09 |
| `CSCCc1c(-c2ccccc2)ncn1[C@H]1C[C@@H](C(=O)O)N(C)C1` | 4.79 | -43.63 |
| `CC(C)(C)CC1CCCN1Cc1nc(-c2ccco2)no1` (stereo unspecified) | -9.446 | 3.322 |
| `COCCN1CCO[C@@H]2CN(C(=O)NCc3ccccc3)CC[C@@H]2C1` | 8.929 | - |
| `O=c1ccc2c([nH]1)CCN(S(=O)(=O)c1ccc3c(c1)CCCC3)C2` | -1.6 | -36.72 |
| `CS(=O)(=O)CCNC(=O)c1ccc(-c2ccco2)[nH]c1=O` | -97.79 | 26.42 |
| `COc1c(Br)c(C(=O)NC2CC2)nn1C` | -8.206 | -0.06345 |
| `CC[C@@H]1N(Cc2ccc(C)s2)CCC[C@]12CCC(=O)N2C` | -2.543 | 9.628 |
| `COCC(C)N1CCc2onc(-c3ccc(C(F)(F)F)cc3)c2C1` (stereo unspecified) | -97.13 | 24.15 |
| `CCn1ccnc1CNCC1CCCN1c1cc(NC)ncn1` (stereo unspecified) | -10.11 | -8.16 |
| `COCCOc1ncccc1C(=O)N(C)c1nccs1` | -1.855 | -17.06 |
| `O=C(NCc1ccncc1)C1CN(c2nc3ccccc3s2)CCN1` (stereo unspecified) | -5.864 | -22.34 |
| `Cc1nc(CCN2CCC(Oc3ccccc3F)CC2)cs1` | -9.831 | -11.59 |
| `O=C(c1ccc[nH]1)N1CCN(CC2CCOc3ccccc3C2)CC1` (stereo unspecified) | -4.865 | -3.782 |
| `Cc1nc(Nc2ccc(Cl)cn2)sc1C(=O)NCCCN1CCCCC1` | -7.173 | 11.93 |
| `CS(=O)(=O)N[C@@H]1CCO[C@]2(CCN(CC3CCOCC3)C2)C1` | 4.046 | -13.32 |
| `Cc1cnc(CNC(=O)CC2CCc3ccccc32)cn1` (stereo unspecified) | 1.136 | -4.58 |
| `Cn1cc(-c2nc(CN3CCN(c4nccs4)CC3)cs2)cn1` | -21.48 | -4.818 |
| `COc1cccc(CN(C)Cc2nc3c(cnn3C)c(=O)[nH]2)c1OC` | -13.98 | 7.956 |
| `Cc1ccccc1S(=O)(=O)N1CCc2c(ncnc2N(C)C)C1` | 8.841 | -31.27 |
| `CC(O)CNC(=O)NCc1ccc(N2CCNC(=O)C2)cc1` (stereo unspecified) | 6.339 | - |
| `COCCN1C(=O)CC[C@]12CC[C@@H](NCc1cccc(C)n1)CC2` | 3.788 | -2.979 |
| `CCOc1ccnc(N2CCN(Cc3ncccc3C)CC2)n1` | 4.784 | -7.741 |
| `CC1(C)CNC(=O)c2nc(CCN3CCC(O)CC3)[nH]c2C1` | 8.486 | 6.565 |
| `COC(=O)CCC(=O)Nc1ccc(Br)c(C)n1` | -17.61 | -2.584 |
| `Nc1nc(CNc2nccc(CCC(F)(F)F)n2)cs1` | -6.694 | 5.757 |
| `Cc1cccc(CN2CCC3(CC2)NC(=O)CC3c2ccccc2)n1` (stereo unspecified) | -4.039 | -36.41 |
| `CN(C)CCN1CCO[C@@H]2CN(C(=O)Cc3ccsc3)CC[C@@H]2C1` | -0.2216 | -15.05 |
| `CSCC(=O)NC1CCN(C(C)c2ccccc2)CC1` (stereo unspecified) | -5.373 | -17.73 |
| `Cc1noc(C)c1CN1C[C@@H](N(C)Cc2ccco2)[C@H]2OCCC[C@H]21` | 2.128 | 3.747 |
| `Cc1ccc(S(=O)(=O)N2CCC(c3n[nH]cc3C)C2)cc1` (stereo unspecified) | 5.45 | -7.537 |
| `CN(CCc1cn[nH]c1)C(=O)C1CC(=O)N(Cc2ccccn2)C1` (stereo unspecified) | -3.101 | -10.38 |
| `CCN1C[C@@H](C(=O)O)[C@H](c2cccc(OC)c2)C1` | 17.68 | -18.48 |
| `Cc1ccc(CCNc2ncc(C)c(-c3ccnn3C)n2)s1` | -18.22 | -48.88 |
| `CC(=O)Nc1nc(C(=O)N2CCCCC2Cn2cccn2)cs1` (stereo unspecified) | -25.48 | -6.938 |
| `CCOc1c(C(N)=O)cn(C)c1-c1nc2cc(NC(C)=O)ccc2n1C` | -13.78 | -5.653 |
| `Cc1cccc(CN2C[C@@H]3CC[C@H](C2)N(Cc2c(C)noc2C)C3=O)n1` | -1.92 | -19.04 |
| `CCc1nc(COc2ccc(OCc3cnn(C)c3)cc2)no1` | -7.216 | -18.53 |
| `CN(C)c1ncccc1CNS(=O)(=O)c1cc(F)ccc1F` | -7.357 | -4.579 |
| `CCc1cc(CN2C[C@H]3CC[C@@H]2CN(C2Cc4ccccc4C2)C3)on1` | 3.233 | 6.349 |
| `CCNC(=O)c1ccc2c(c1)nc1n2CCN(Cc2ccco2)C1` | -3.209 | -29.36 |
| `CN1CC(C(=O)NCCc2ccn(-c3ccc(F)cc3)n2)CC1=O` (stereo unspecified) | -7.055 | - |
| `CN1CC2(CCCN(CCOCc3ccccc3)C2)OC1=O` (stereo unspecified) | 18.82 | -3.125 |
| `CN(CC(O)C(F)(F)F)C(=O)Nc1cccc(Cn2cccn2)c1` (stereo unspecified) | -8.524 | -37.91 |
| `Fc1ccc(CN2CCOC[C@H](Oc3cccnc3)C2)cc1` | -9.435 | 6.838 |
| `O=C(Nc1ccccc1Oc1cccc(F)c1)C1CCS(=O)(=O)C1` (stereo unspecified) | 7.779 | -46.86 |
| `CCn1cc(-c2cncn2CCc2ccc3c(c2)OCCO3)cn1` | 9.587 | -28.93 |
| `CCc1ncnc2c1CCN(Cc1ccc(OC)cc1)CC2` | 1.503 | 6.1 |
| `COCCN1CCCC1c1nccnc1Nc1nc(C)cs1` (stereo unspecified) | 3.649 | -1.613 |
| `COCCN1C[C@@H]2[C@@H](OC)CCN(Cc3ccco3)[C@@H]2C1` | -18.29 | -12.21 |

6 of the entries, repeated:

Result for CC(=O)Nc1nc(C(=O)N2CCCCC2Cn2cccn2)cs1 (stereo unspecified) was ClpP1P2: -25.48%; Pks13 thioesterase: -6.938%.
Result for Cc1ccc(CCNc2ncc(C)c(-c3ccnn3C)n2)s1 was ClpP1P2: -18.22%; Pks13 thioesterase: -48.88%.
Result for CN(C)c1ncccc1CNS(=O)(=O)c1cc(F)ccc1F was ClpP1P2: -7.357%; Pks13 thioesterase: -4.579%.
Result for COc1c(Br)c(C(=O)NC2CC2)nn1C was ClpP1P2: -8.206%; Pks13 thioesterase: -0.06345%.
Result for CN1CC2(CCCN(CCOCc3ccccc3)C2)OC1=O (stereo unspecified) was ClpP1P2: 18.82%; Pks13 thioesterase: -3.125%.
Result for COCCN1C[C@@H]2[C@@H](OC)CCN(Cc3ccco3)[C@@H]2C1 was ClpP1P2: -18.29%; Pks13 thioesterase: -12.21%.